Measurements from US5679674A (priority 1992, dated 1997).

System: p-Phenylquinone-induced agony (writhing response) in mice
Experiment: animal or person
Assay type: in vivo, Male ddy mice
Conditions: Mus musculus, sc, 0.25 h, read-out: Analgesic effect (ED50, μg/kg sc) Phenylquinone-induced agony test

## CN1CC[C@]23c4c5ccc(O)c4O[C@H]2[C@@H](O)C=C[C@H]3[C@H]1C5.Cl [Morphine HCl, reference compound]
  ED50: 480 µg/kg
